The results in this text go back to publication PMC7665024, “Anti-apoptotic BCL-2 regulation by changes in dynamics of its long unstructured loop” (Communications Biology, 2020).

The data set concerns BCL-2. As to the kind of experiment: DEER inter-spin distance distributions of double-spin-labeled BCL-2. Further details: species or system human. The settings on record: spin-label pair 12/92, no ligand, 80 K.

Consider “WT: TM-truncated wild-type human BCL-2 (BCL-2-ΔTM, residues 1–217, C-terminal His6-tag)”, for which the “full-width-at-half-maximum of DEER distance distribution” value is 1.81 nm.

B1: EEE (protein)
chain: MAHAGRTGYDNREIVMKYIHYKLSQRGYEWDAGDVGAAPPGAAPAPGIFSSQPGHTPHPAASRDPVAREEPLQTPAAPGAAAGPALEPVPPVVHLTLRQAGDDFSRRYRRDFAEMSSQLHLTPFTARGRFATVVEELFRDGVNWGRIVAFFEFGGVMCVESVNREMSPLVDNIALWMTEYLNRHLHTWIQDNGGWDAFVELYGPSMRPLFDFSWLSL
modifications: Pacific Blue (maleimide) on the native cysteine 158; left off: His6, C-terminal, state not stated
In the case of B1, the “full-width-at-half-maximum of DEER distance distribution” value is listed as 0.46 nm.
